{"source": "paper PMC11802874", "about": "“The hypolipidemic effect of MI-883, the combined CAR agonist/ PXR antagonist, in diet-induced hypercholesterolemia model” (Nature Communications, 2025)", "binders": {"B1": {"name": "VP16-AD/PXR(108-434) (domain or fragment, UniProt O75469 108-434)", "chain": "KKEMIMSDEAVEERRALIKRKKSERTGTQPLGVQGLTEEQRMMIRELMDAQMKTFDTTFSHFKNFRLPGVLSSGCELPESLQAPSREEAAKWSQVRKDLCSLKVSLQLRGEDGSVWNYKPPADSGGKEIFSLLPHMADMSTYMFKGIISFAKVISYFRDLPIEDQISLLKGAAFELCQLRFNTVFNAETGTWECGRLSYCLEDTAGGFQQLLLEPMLKFHYMLKKLQLHEEEYVLMQAISLFSPDRPGVLQHRVVDQLQEQFAITLKSYIECNRPQPAHRFLFLKIMAMLTELRSINAQHTQRLLRIQDIHPFATPLMQELFGITGS"}}, "key": {"[1]": {"target": "GAL4-DBD/NCOR2-RID (residues 1109–1330)", "experiment": "two-hybrid; mammalian two-hybrid PXR-corepressor release assay in HepG2 cells: GAL4-DBD/NCOR2-RID and VP16-AD/PXR(108-434) with RXRα expression plasmid, pGL4-G5 reporter; cells treated with MI-883 for 24 h"}, "[2]": {"target": "GAL4-DBD/NCOR2-RID (residues 1109–1330)", "experiment": "two-hybrid; mammalian two-hybrid PXR-corepressor release assay in HepG2 cells: GAL4-DBD/NCOR2-RID and VP16-AD/PXR(108-434) with RXRα expression plasmid, pGL4-G5 reporter; vehicle"}}, "note": "These are yes or no findings as the source states them, for the method shown. For some assays here: Binding can be weak; no strength is given. Where a sequence is shown, tags or fusion partners need not be part of it.", "data": [{"binder": "B1", "values": [{"measurement": "binding", "setting": "[1]", "value": "no binding (only with MI-883)"}, {"measurement": "binding", "setting": "[2]", "value": "binds"}]}]}
